Results on three substances are retold here after publication PMC7797672.

Amino acid sequences for entries named in this document (tags omitted).
UniProt Q8R4B8: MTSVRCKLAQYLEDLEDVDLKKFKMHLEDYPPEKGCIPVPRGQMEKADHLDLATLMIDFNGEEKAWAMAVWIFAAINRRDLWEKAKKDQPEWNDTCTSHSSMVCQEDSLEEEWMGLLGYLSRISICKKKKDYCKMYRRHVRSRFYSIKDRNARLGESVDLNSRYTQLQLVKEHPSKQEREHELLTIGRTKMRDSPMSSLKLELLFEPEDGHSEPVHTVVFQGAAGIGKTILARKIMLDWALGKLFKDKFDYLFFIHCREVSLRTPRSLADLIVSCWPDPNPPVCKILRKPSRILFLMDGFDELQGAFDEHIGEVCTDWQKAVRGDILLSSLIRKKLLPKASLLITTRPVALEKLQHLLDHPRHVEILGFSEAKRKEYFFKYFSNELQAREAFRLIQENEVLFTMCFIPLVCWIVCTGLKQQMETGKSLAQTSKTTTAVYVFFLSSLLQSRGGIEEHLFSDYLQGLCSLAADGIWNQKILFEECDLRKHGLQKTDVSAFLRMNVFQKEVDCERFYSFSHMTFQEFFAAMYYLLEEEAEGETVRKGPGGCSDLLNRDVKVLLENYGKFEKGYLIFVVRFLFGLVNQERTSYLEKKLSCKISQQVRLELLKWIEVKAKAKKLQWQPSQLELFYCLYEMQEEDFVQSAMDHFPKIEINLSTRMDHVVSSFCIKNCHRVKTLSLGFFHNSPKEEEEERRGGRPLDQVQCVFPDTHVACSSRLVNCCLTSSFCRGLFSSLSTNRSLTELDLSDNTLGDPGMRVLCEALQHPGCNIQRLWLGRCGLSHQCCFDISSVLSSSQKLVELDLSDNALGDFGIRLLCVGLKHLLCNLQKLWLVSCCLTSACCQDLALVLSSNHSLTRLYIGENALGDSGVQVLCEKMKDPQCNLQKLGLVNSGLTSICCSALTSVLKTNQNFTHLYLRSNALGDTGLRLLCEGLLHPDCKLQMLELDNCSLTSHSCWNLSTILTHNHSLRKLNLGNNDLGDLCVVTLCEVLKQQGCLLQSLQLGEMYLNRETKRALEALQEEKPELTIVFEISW
UniProt P37231: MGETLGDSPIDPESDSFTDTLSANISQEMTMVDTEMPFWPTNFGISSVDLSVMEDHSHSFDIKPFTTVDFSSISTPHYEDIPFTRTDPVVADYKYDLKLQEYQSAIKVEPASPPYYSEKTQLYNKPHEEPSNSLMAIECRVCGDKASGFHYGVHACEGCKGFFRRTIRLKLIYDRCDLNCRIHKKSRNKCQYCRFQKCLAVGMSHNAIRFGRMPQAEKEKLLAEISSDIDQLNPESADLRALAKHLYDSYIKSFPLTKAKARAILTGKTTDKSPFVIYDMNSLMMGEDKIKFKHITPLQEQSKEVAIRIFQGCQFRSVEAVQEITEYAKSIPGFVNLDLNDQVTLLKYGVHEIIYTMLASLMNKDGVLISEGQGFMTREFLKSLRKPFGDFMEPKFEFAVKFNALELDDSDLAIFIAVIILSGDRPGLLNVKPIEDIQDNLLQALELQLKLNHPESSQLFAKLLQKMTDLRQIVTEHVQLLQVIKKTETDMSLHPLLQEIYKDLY
UniProt P37238: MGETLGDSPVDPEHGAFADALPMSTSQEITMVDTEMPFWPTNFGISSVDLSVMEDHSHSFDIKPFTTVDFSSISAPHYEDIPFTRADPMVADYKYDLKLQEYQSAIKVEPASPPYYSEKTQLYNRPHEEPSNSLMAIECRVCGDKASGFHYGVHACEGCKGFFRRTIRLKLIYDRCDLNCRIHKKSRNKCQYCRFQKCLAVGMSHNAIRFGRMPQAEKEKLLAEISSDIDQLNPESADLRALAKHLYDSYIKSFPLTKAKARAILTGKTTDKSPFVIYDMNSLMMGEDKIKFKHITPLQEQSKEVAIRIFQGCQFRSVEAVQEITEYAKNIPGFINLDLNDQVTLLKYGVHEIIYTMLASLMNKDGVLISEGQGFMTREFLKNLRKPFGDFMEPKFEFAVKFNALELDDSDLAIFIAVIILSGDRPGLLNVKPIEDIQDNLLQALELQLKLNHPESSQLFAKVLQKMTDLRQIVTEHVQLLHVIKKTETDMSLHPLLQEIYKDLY
UniProt Q9ULZ3: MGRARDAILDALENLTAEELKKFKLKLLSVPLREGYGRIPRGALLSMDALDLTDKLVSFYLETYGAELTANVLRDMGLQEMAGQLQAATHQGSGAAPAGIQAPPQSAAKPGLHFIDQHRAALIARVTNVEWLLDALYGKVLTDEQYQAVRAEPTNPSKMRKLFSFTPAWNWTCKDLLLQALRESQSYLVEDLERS

These are yes or no findings as the source states them, for the method shown. Binding seen in cells or lysates may run through a third protein. Some results given as binding are weak or reduced against the parent protein; the word gives no strength.

Test [1] has as its target NLRP3, endogenous in mouse peritoneal macrophages (mouse (endogenous in peritoneal macrophages)) (UniProt Q8R4B8). Put plainly: co-IP; total lysate of mouse peritoneal macrophages, endogenous proteins; untreated, LPS-primed, or LPS plus nigericin; Dynabeads protein G; both orientations (Figure 3F and reverse co-IP precipitating PPARγ, Figure S2).
Test [2] has the same target. Put plainly: proximity ligation; Duolink PLA in situ in mouse peritoneal macrophages, endogenous proteins; untreated, LPS, LPS plus nigericin; Nlrp3-/- macrophages as control.
Test [3] deals with Peroxisome proliferator activated receptor gamma (PPARγ), full-length (wild-type [WT]) (UniProt P37231). The test is described as follows: co-IP; total lysate (1 mg) of HEK293T cells transfected for 24 h; primary or IgG control antibody (1 μg) overnight at 4 °C, Dynabeads protein G 10 min at RT, washed with PBST (0.1% Tween-20); immunoblot.
The target of test [4] is PPARγ, endogenous in mouse peritoneal macrophages (mouse (endogenous in peritoneal macrophages)) (UniProt P37238). The test is described as follows: co-IP; total lysate of mouse peritoneal macrophages, endogenous proteins; untreated, LPS-primed, or LPS plus nigericin; Dynabeads protein G; both orientations (Figure 3F and reverse co-IP precipitating PPARγ, Figure S2).

Regarding “PPARγ, endogenous in mouse peritoneal macrophages (from UniProt P37238 1-505)”, the binding entry in test [1] and in test [2] was “binds” throughout.
Consider “ASC (apoptosis-associated speck-like protein containing a caspase activation and recruitment domain) (from UniProt Q9ULZ3 1-195)”, for which the binding entry in test [3] is on record as “no binding”.
“NLRP3, endogenous in mouse peritoneal macrophages (from UniProt Q8R4B8 1-1033)”: the binding result in test [4] is on record as “binds”.
